Source: PubChem BioAssay AID1224831 (NIAID, 2016)
In all, the deposit lists about 3,500 reagents; this is a random part of them. Over the whole deposit, 731 (21%) got an active call. 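Active means either lowered or raised reporter signal; the gene-median score did not drive the per-siRNA calls.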 Unmarked entries are inactive. The numbers tell different reagents against one gene apart.

Aim: 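Genes that support or restrain LPS-induced TNF-alpha reporter activity in macrophage-like cells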 (follow-up of hits)
Cells: human THP-1 B5 monocytic leukaemia cells carrying a TNF promoter luciferase reporter, made macrophage-like with PMA
Reagent: single siRNA against human genes, 50 nM
Timing: about 68 h of knock-down, then 4 h LPS
Challenge: LPS (Salmonella minnesota, TLR-grade) at 10 ng/ml for 4 h; PMA 5 ng/ml present during knock-down
Read-out: 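Firefly to renilla luciferase ratio of a TNF promoter reporter after 4 h LPS, scaled to plate median, turned into robust z-score, averaged over replicates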
Reading the numbers: TNF reporter z-score: higher = stronger LPS-induced TNF reporter signal; z-score, median over gene's siRNAs: higher = stronger TNF reporter signal across the gene's siRNAs
Call rule: 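Active when the replicate mean z-score is about -1 or lower, or about 1.5 or higher; lowered and raised TNF reporter signal both count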
Calls: active = changed TNF reporter (either direction); inactive = little change

no.	gene	siRNA no.	TNF reporter z-score, replicate mean	z-score, median over gene's siRNAs
1	CPA3 (GeneID 1359)	1	2.29 (active)	0.455
2	CPA3 (GeneID 1359)	2	0.5	0.455
3	CPA3 (GeneID 1359)	3	-1.18 (active)	0.455
4	CPA3 (GeneID 1359)	4	0.41	0.455
5	CPA3 (GeneID 1359)	5	4.87 (active)	0.455
6	CPA3 (GeneID 1359)	6	0.16	0.455
7	GRIPAP1 (GeneID 56850)	1	2 (active)	0.51
8	GRIPAP1 (GeneID 56850)	2	0.44	0.51
9	GRIPAP1 (GeneID 56850)	3	0.35	0.51
10	GRIPAP1 (GeneID 56850)	4	2.91 (active)	0.51
11	GRIPAP1 (GeneID 56850)	5	-0.09	0.51
12	GRIPAP1 (GeneID 56850)	6	0.58	0.51
13	LITAF (GeneID 9516)	1	2.41 (active)	0.855
14	LITAF (GeneID 9516)	2	-0.01	0.855
15	LITAF (GeneID 9516)	3	1.72 (active)	0.855
16	LITAF (GeneID 9516)	4	2.56 (active)	0.855
17	LITAF (GeneID 9516)	5	-0.24	0.855
18	LITAF (GeneID 9516)	6	-0.81	0.855
19	COL1A2 (GeneID 1278)	1	-0.11	-0.065
20	COL1A2 (GeneID 1278)	2	-0.85	-0.065
21	COL1A2 (GeneID 1278)	3	-0.09	-0.065
22	COL1A2 (GeneID 1278)	4	2.64 (active)	-0.065
23	COL1A2 (GeneID 1278)	5	-0.04	-0.065
24	COL1A2 (GeneID 1278)	6	1.62 (active)	-0.065
25	THNSL1 (GeneID 79896)	1	0.28	0.755
26	THNSL1 (GeneID 79896)	2	2.24 (active)	0.755
27	THNSL1 (GeneID 79896)	3	-0.87	0.755
28	THNSL1 (GeneID 79896)	4	-0.32	0.755
29	THNSL1 (GeneID 79896)	5	1.62 (active)	0.755
30	THNSL1 (GeneID 79896)	6	1.23	0.755
31	PDCD6 (GeneID 10016)	1	-0.41	0.105
32	PDCD6 (GeneID 10016)	2	0.12	0.105
33	PDCD6 (GeneID 10016)	3	-0.02	0.105
34	PDCD6 (GeneID 10016)	4	0.09	0.105
35	PDCD6 (GeneID 10016)	5	0.57	0.105
36	PDCD6 (GeneID 10016)	6	1.66 (active)	0.105
37	RUNX2 (GeneID 860)	1	-0.16	0.885
38	RUNX2 (GeneID 860)	2	-0.17	0.885
39	RUNX2 (GeneID 860)	3	0.99	0.885
40	RUNX2 (GeneID 860)	4	0.78	0.885
41	RUNX2 (GeneID 860)	5	2.15 (active)	0.885
42	RUNX2 (GeneID 860)	6	3.35 (active)	0.885
43	NDE1 (GeneID 54820)	1	0.66	0.31
44	NDE1 (GeneID 54820)	2	0.4	0.31
45	NDE1 (GeneID 54820)	3	-0.3	0.31
46	NDE1 (GeneID 54820)	4	-1 (active)	0.31
47	NDE1 (GeneID 54820)	5	1.03	0.31
48	NDE1 (GeneID 54820)	6	0.22	0.31
49	KIN (GeneID 22944)	1	-0.01	0.245
50	KIN (GeneID 22944)	2	-0.45	0.245
51	KIN (GeneID 22944)	3	0.5	0.245
52	KIN (GeneID 22944)	4	1.5 (active)	0.245
53	KIN (GeneID 22944)	5	1.71 (active)	0.245
54	KIN (GeneID 22944)	6	-0.3	0.245
55	TMEM176B (GeneID 28959)	1	0.42	0.13
56	TMEM176B (GeneID 28959)	2	0.05	0.13
57	TMEM176B (GeneID 28959)	3	0.02	0.13
58	TMEM176B (GeneID 28959)	4	0.21	0.13
59	TMEM176B (GeneID 28959)	5	1.46	0.13
60	TMEM176B (GeneID 28959)	6	-0.84	0.13
61	MR1 (GeneID 3140)	1	1.42	-0.165
62	MR1 (GeneID 3140)	2	-0.08	-0.165
63	MR1 (GeneID 3140)	3	0.66	-0.165
64	MR1 (GeneID 3140)	4	-0.25	-0.165
65	MR1 (GeneID 3140)	5	-0.81	-0.165
66	MR1 (GeneID 3140)	6	-0.36	-0.165
67	ENDOV (GeneID 284131)	1	0.3	-0.14
68	ENDOV (GeneID 284131)	2	-0.68	-0.14
69	ENDOV (GeneID 284131)	3	-0.48	-0.14
70	ENDOV (GeneID 284131)	4	-0.59	-0.14
71	ENDOV (GeneID 284131)	5	0.21	-0.14
72	ENDOV (GeneID 284131)	6	0.2	-0.14
73	HOXA6 (GeneID 3203)	1	0.19	0.52
74	HOXA6 (GeneID 3203)	2	2.67 (active)	0.52
75	HOXA6 (GeneID 3203)	3	2.39 (active)	0.52
76	HOXA6 (GeneID 3203)	4	-1.26 (active)	0.52
77	HOXA6 (GeneID 3203)	5	0.85	0.52
78	HOXA6 (GeneID 3203)	6	-1.35 (active)	0.52
79	BOK (GeneID 666)	1	-1.48 (active)	-0.49
80	BOK (GeneID 666)	2	-0.53	-0.49
81	BOK (GeneID 666)	3	-0.92	-0.49
82	BOK (GeneID 666)	4	-0.36	-0.49
83	BOK (GeneID 666)	5	0.87	-0.49
84	BOK (GeneID 666)	6	-0.45	-0.49

In a second layout: entries from further up.
{"gene": "KIN (GeneID 22944)", "siRNA no.": 6, "TNF reporter z-score, replicate mean": -0.3, "z-score, median over gene's siRNAs": 0.245}
{"gene": "TMEM176B (GeneID 28959)", "siRNA no.": 1, "TNF reporter z-score, replicate mean": 0.42, "z-score, median over gene's siRNAs": 0.13}
{"gene": "TMEM176B (GeneID 28959)", "siRNA no.": 2, "TNF reporter z-score, replicate mean": 0.05, "z-score, median over gene's siRNAs": 0.13}
{"gene": "TMEM176B (GeneID 28959)", "siRNA no.": 3, "TNF reporter z-score, replicate mean": 0.02, "z-score, median over gene's siRNAs": 0.13}
{"gene": "TMEM176B (GeneID 28959)", "siRNA no.": 4, "TNF reporter z-score, replicate mean": 0.21, "z-score, median over gene's siRNAs": 0.13}
{"gene": "TMEM176B (GeneID 28959)", "siRNA no.": 5, "TNF reporter z-score, replicate mean": 1.46, "z-score, median over gene's siRNAs": 0.13}
